Measured values reported in paper PMC4220463, “Direct interaction of Plk4 with STIL ensures formation of a single procentriole per parental centriole” (Nature Communications, 2014).
Results are given in words; binding and its absence hold for the method and conditions named. In cells and extracts the contact can be indirect. Tags and fused reporters may be left off the sequences shown.

Target: T1, Plk4-FLAG full-length wild-type (UniProt O00444)
T1 sequence: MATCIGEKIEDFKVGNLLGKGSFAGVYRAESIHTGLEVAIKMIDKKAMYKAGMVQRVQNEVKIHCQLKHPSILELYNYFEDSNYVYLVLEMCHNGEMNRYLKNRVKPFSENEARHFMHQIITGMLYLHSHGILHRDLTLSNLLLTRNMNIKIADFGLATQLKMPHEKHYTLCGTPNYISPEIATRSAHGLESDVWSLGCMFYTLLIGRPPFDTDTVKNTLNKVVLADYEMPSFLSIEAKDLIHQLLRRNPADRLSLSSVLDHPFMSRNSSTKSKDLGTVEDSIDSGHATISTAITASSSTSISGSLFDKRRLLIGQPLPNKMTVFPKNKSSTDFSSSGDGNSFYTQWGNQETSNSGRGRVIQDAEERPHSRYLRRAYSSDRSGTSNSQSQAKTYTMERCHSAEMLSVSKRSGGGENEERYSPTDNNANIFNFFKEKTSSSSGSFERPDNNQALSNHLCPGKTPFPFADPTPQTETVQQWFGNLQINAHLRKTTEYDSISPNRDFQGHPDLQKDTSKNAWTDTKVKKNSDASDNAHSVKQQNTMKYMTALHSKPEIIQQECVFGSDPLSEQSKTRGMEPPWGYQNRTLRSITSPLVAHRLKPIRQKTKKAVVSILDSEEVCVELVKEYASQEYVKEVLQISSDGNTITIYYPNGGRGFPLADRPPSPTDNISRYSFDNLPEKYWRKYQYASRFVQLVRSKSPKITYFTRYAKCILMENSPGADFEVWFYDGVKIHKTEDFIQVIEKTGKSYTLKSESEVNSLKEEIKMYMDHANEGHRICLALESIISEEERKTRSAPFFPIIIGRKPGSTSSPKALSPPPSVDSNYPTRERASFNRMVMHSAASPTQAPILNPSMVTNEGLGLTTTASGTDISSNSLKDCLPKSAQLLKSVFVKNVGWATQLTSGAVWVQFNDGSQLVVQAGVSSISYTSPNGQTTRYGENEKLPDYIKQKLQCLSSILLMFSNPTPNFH
Test: co-IP; FLAG antibody-conjugated M2 agarose, 2 h at 4 °C, whole-cell lysates of HEK293T cells expressing Plk4-FLAG proteins (alone or with HA-STIL constructs); lysis buffer 20 mM Tris/HCl pH 7.5, 50 mM NaCl, 1% Triton X-100, 5 mM EGTA, 1 mM DTT, 2 mM MgCl2; western blot

B1: endogenous HsSAS-6 (protein, UniProt Q6UVJ0 1-657)
chain: MSQVLFHQLVPLQVKCKDCEERRVSIRMSIELQSVSNPVHRKDLVIRLTDDTDPFFLYNLVISEEDFQSLKFQQGLLVDFLAFPQKFIDLLQQCTQEHAKEIPRFLLQLVSPAAILDNSPAFLNVVETNPFKHLTHLSLKLLPGNDVEIKKFLAGCLKCSKEEKLSLMQSLDDATKQLDFTRKTLAEKKQELDKLRNEWASHTAALTNKHSQELTNEKEKALQAQVQYQQQHEQQKKDLEILHQQNIHQLQNRLSELEAANKDLTERKYKGDSTIRELKAKLSGVEEELQRTKQEVLSLRRENSTLDVECHEKEKHVNQLQTKVAVLEQEIKDKDQLVLRTKEAFDTIQEQKVVLEENGEKNQVQLGKLEATIKSLSAELLKANEIIKKLQGDLKTLMGKLKLKNTVTIQQEKLLAEKEEKLQKEQKELQDVGQSLRIKEQEVCKLQEQLEATVKKLEESKQLLKNNEKLITWLNKELNENQLVRKQDVLGPSTTPPAHSSSNTIRSGISPNLNVVDGRLTYPTCGIGYPVSSAFAFQNTFPHSISAKNTSHPGSGTKVQFNLQFTKPNASLGDVQSGATISMPCSTDKENGENVGLESKYLKKREDSIPLRGLSQNLFSNSDHQRDGTLGALHTSSKPTALPSASSAYFPGQLPNS
binding: no binding
